The target of the experiment is Y-box binding protein 1 (human (endogenous in A549)) (UniProt P67809). The experiment in a line: co-IP; Pierce Co-immunoprecipitation kit; anti-YBX1 (ab76149) or anti-p53 (sc-126) antibody coupled to AminoLink Plus Coupling Resin; total A549 cell lysate in IP buffer, overnight at 4 °C; eluate analysed by western blot. On the technique in general: A western blot detects proteins with antibodies after separation by electrophoresis.

These are yes or no findings as the source states them, for the method shown. Binding seen in cells or lysates may run through a third protein. Some entries that bind do so weakly or less than the wild type.

p53 (from UniProt P04637 1-393): the binding result was “binds”.

For the origin of these results see article PMC7067885.
